Out of some 390,000 compounds screened, about 4,000 (1%) were called active. Inconclusive results, whose numbers are uncertain, are shown with a selection of clear calls. Calls follow the shape of the dose curve; as a rule, active = well fitted inhibition curve with a large enough effect; inconclusive = small, poorly fitted or top-dose-only effect, or another doubt; inactive = no such curve, though single readings can be large or run the other way. Potencies beside an inconclusive call are fits to weak or partial responses and may not hold up.
Target: DNA polymerase iota (Homo sapiens) (UniProt Q9UNA4)
Assay: qHTS for Inhibitors of Polymerase Iota
Settings: Pol iota fluorescent replication assay, 10 min; series mostly up to 115 µM; activity, negative = inhibition: at the top concentration
Outline: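 Pol iota at 10 nM preincubated 15 min with compounds at room temperature; reaction started with fluorescent substrate, 50 nM final. Fluorescence read kinetically at 0 and 10 min; buffer-only wells as negative control.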
Potency is read from the fitted curve at half-maximal effect.

The chains behind the UniProt entries cited, without tags or fusion partners. Where a name states a change or a piece, a line headed by the entry shows the natural chain unless it says otherwise.
UniProt Q9UNA4: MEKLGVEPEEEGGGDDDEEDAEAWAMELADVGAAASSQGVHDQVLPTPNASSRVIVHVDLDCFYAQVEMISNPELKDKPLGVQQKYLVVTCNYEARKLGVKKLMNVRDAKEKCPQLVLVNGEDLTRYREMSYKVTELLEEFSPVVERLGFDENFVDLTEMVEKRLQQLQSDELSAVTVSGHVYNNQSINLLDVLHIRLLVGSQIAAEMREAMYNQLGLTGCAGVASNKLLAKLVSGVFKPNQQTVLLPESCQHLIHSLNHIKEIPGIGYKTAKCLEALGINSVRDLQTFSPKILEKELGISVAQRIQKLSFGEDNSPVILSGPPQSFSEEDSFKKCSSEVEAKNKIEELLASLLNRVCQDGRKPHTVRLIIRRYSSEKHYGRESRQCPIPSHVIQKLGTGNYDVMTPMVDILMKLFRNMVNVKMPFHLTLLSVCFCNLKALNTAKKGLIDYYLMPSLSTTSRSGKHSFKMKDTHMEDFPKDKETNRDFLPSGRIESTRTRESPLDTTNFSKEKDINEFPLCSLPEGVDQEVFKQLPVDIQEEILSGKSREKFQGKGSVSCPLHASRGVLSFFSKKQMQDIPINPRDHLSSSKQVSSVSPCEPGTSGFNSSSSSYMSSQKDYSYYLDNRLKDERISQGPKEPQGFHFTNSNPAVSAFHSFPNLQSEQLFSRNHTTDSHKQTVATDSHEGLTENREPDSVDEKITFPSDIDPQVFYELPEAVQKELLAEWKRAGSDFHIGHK

Structure (SMILES) | activity, negative = inhibition | Potency
Cc1ccc(S(=O)(=O)NN2C(=O)/C(=C/c3cccs3)SC2=S)cc1 | inactive: -9.62% | –
CCC(CC)c1nnc(NC(=O)C2CC(=O)N(CCc3ccc(F)cc3)C2)s1 (stereo unspecified) | – | inconclusive: 25.1 µM [inhibitor, single point]
Cc1nc(-c2ccc(Cl)cc2)sc1C1(C)CC(c2cccnc2)=NO1 (stereo unspecified) | – | inconclusive: 31.6 µM [inhibitor, single point]
CC1Cc2ccccc2N1C(=O)COC(=O)c1ccc(N(C)C)cc1 (stereo unspecified) | – | active: 12.6 µM
Cc1cc(C)cc(Oc2c(C(F)(F)F)oc3cc(OCC(=O)O)ccc3c2=O)c1 | – | inconclusive: 3.16 µM [inhibitor, partial curve, poor fit]
CCOC(=O)c1sc(NC(=O)CSc2nc(C)cc(C)n2)c(C#N)c1C | – | inconclusive: 0.708 µM [inhibitor, full curve, poor fit]
O=C1C=C(c2cccc(O)c2)C[C@@H](c2ccc(F)cc2)C1 | – | inconclusive: 89.1 µM [inhibitor, partial curve, poor fit]
O=C1C(=C(I)I)c2ccccc2-c2ccccc21 | – | inconclusive: 4.47 µM [inhibitor, full curve, poor fit]
COc1ccccc1NC(=O)CSc1nnc(-c2ccoc2C)n1CCc1ccccc1 | – | inconclusive: 28.2 µM [inhibitor, single point]
Cc1nc(NC(=O)c2ccccc2)sc1C1(C)CC(c2ccccc2F)=NO1 (stereo unspecified) | – | inconclusive: 20 µM [inhibitor, partial curve, poor fit]
O=C(COCc1cc(-c2ccc(F)cc2)on1)Nc1cccc(C(F)(F)F)c1 | inactive: 13% | –
CC1=CS/C(=C(/C#N)C(=O)N2CCCCC2)N1c1ccccc1 | – | inconclusive: 20 µM [inhibitor, partial curve, poor fit]
CCOc1ccccc1/C=C(\C#N)C(=O)Nc1cccc(C(=O)O)c1 | – | inconclusive: 28.2 µM [inhibitor, single point]
CNc1cc(C)c(C#N)c2nc3ccccc3n12 | inactive: 41.9% | –
Cc1ccccc1OCC(O)CN1C(=O)c2ccccc2C1=O (stereo unspecified) | – | inconclusive: 31.6 µM [inhibitor, single point]
CC(O)CN=c1cc(-c2ccccc2)oc2ccc(Cl)cc12 (stereo unspecified) | – | inconclusive: 22.4 µM [inhibitor, full curve, poor fit]
CCOc1ccc(-c2cn3c(n2)sc2cc(C(=O)NC(C)C45CC6CC(CC(C6)C4)C5)ccc23)cc1 (stereo unspecified) | inactive: -8.04% | –
COc1ccc(CNC(=O)CCS(=O)(=O)c2ccc3c(c2)NC(=O)C(C)S3)cc1 (stereo unspecified) | – | inconclusive: 56.2 µM [inhibitor, partial curve, poor fit]
CC(Nc1oc(-c2ccc(COc3ccccc3)o2)nc1C#N)c1ccccc1 (stereo unspecified) | inactive: 52.5% | –
CCOc1ccc2c(ccc(/C=C/c3cc(C)c4cccnc4c3O)[n+]2C)c1 | – | inconclusive: 15.8 µM [inhibitor, partial curve, poor fit]
NS(=O)(=O)c1ccc(CCNC(=O)COC(=O)c2ccc([N+](=O)[O-])o2)cc1 | – | active: 35.5 µM
O=C(CSc1nnc2sc3ccccc3n12)NCc1ccc2c(c1)OCO2 | – | inconclusive: 89.1 µM [inhibitor, single point]
COc1ccccc1/C=C/c1nc(C#N)c(NCc2ccccc2)o1 | inactive: 41.4% | –
COc1ccc(-c2cn(-c3cccc(C)c3)c(=O)[nH]2)cc1OC | – | inconclusive: 10 µM [inhibitor, full curve, poor fit]

Structure (SMILES) | activity, negative = inhibition | Potency
COc1ccc(-c2cn3c(n2)sc2cc(C(=O)NCCc4ccccc4)ccc23)cc1 | inactive: 9.42% | –
Cc1ccnc(Sc2ccc([N+](=O)[O-])cc2[N+](=O)[O-])n1 | – | inconclusive: 11.2 µM [inhibitor, full curve]
CCSc1cc(N2CCCC2)nc(-c2ccc(F)cc2)n1 | – | inconclusive: 2.82 µM [inhibitor, full curve, poor fit]
N#CC1=C(S)N(c2ccccc2)C(c2ccc(-c3cccc(Cl)c3)o2)NC1=O (stereo unspecified) | – | inconclusive: 12.6 µM [inhibitor, partial curve, poor fit]
COc1ccc(-n2ncc(C(=O)NCc3cccs3)c2C2CCN(C(=O)OC(C)(C)C)CC2)cc1 | inactive: 11.8% | –
COc1ccc(-c2nn(-c3ccccc3)cc2/C=C2/SC(=S)N(CCC(=O)O)C2=O)c(C)c1 | – | inconclusive: 17.8 µM [inhibitor, full curve, poor fit]
NCCCC[C@@H]1NC(=O)c2cc([N+](=O)[O-])cc(I)c2SC[C@@H](C(=O)NCC(N)=O)NC(=O)CNC1=O | – | inconclusive: 10 µM [inhibitor, partial curve, poor fit]
COc1cccc(C(=O)Nc2cccc(C(=O)NC3=NN(c4c(Cl)cc(Cl)cc4Cl)C(=O)C3)c2)c1 | – | inconclusive: 15.8 µM [inhibitor, partial curve, poor fit]
COc1ccccc1C(=O)N/C(=C/c1ccco1)C(=O)Nc1cccc(C(=O)O)c1 | – | inconclusive: 2.51 µM [inhibitor, full curve, poor fit]
Cc1ccc(Cl)cc1N1CCN(C(=O)CSc2ccsc2[N+](=O)[O-])CC1 | – | inconclusive: 22.4 µM [inhibitor, full curve]
CC(=O)Cc1nsc(NC(=O)c2ccco2)n1 | – | inconclusive: 31.6 µM [inhibitor, partial curve, poor fit]
CS(=O)(=O)N1CCN(c2ccccc2NC(=O)c2ccc3ccccc3c2)CC1 | – | inconclusive: 12.6 µM [inhibitor, partial curve, poor fit]
COc1ccc(-c2noc(CN(C(=O)c3ccc(C)cc3C)C(C)C)n2)cc1 | inactive: -19.1% | –
Cc1ccc(C(=O)NCCc2csc(-c3cccc(F)c3)n2)cc1C | inactive: 9.47% | –
O=C(O)Cc1ccc(-n2cccc2)cc1 | – | active: 12.6 µM
CCOC(=O)Cc1cc(=O)[nH]n(-c2ccccc2)c1=O | – | inconclusive: 89.1 µM [inhibitor, single point]
COc1cc(-c2noc(C)c2/C=C/c2ccc(C(=O)O)cc2)cc(OC)c1OC | – | inconclusive: 50.1 µM [inhibitor, partial curve, poor fit]
Cc1nnc(SCC(=O)Nc2sccc2C(N)=O)s1 | – | inconclusive: 50.1 µM [inhibitor, partial curve, poor fit]
CCOc1ccc(/C=C/c2ccc3ccccc3[n+]2C)cc1OCC | – | inconclusive: 22.4 µM [inhibitor, full curve]
O=C(Nc1ccc(Br)cc1)c1ccc(-n2cnnn2)cc1 | – | inconclusive: 79.4 µM [inhibitor, partial curve]
Cn1c(=NC(=O)CN2C(=O)C3CC=CCC3C2=O)sc2ccccc21 (stereo unspecified) | – | inconclusive: 100 µM [inhibitor, partial curve, poor fit]
CN(C)c1ccc(-c2nc(-c3ccccn3)no2)cc1[N+](=O)[O-] | – | inconclusive: 39.8 µM [inhibitor, single point]
COCCNC(=O)CN1C(=O)CSc2cc(S(=O)(=O)N3CCCCCC3)ccc21 | – | inconclusive: 0.708 µM [inhibitor, partial curve, poor fit]
CCOC(=O)N1CCC(N(CCCOC)C(=O)Nc2ccc(CC)cc2)CC1 | – | inconclusive: 89.1 µM [inhibitor, single point]

An excerpt from above in order of molar mass, high to low.
Structure (SMILES) | activity, negative = inhibition | Potency
COc1ccc(-c2nn(-c3ccccc3)cc2/C=C2/SC(=S)N(CCC(=O)O)C2=O)c(C)c1 | – | inconclusive: 17.8 µM [inhibitor, full curve, poor fit]
COc1cc(-c2noc(C)c2/C=C/c2ccc(C(=O)O)cc2)cc(OC)c1OC | – | inconclusive: 50.1 µM [inhibitor, partial curve, poor fit]
CCOC(=O)N1CCC(N(CCCOC)C(=O)Nc2ccc(CC)cc2)CC1 | – | inconclusive: 89.1 µM [inhibitor, single point]
CCOc1ccc(/C=C/c2ccc3ccccc3[n+]2C)cc1OCC | – | inconclusive: 22.4 µM [inhibitor, full curve]
Cc1nnc(SCC(=O)Nc2sccc2C(N)=O)s1 | – | inconclusive: 50.1 µM [inhibitor, partial curve, poor fit]
CCOC(=O)Cc1cc(=O)[nH]n(-c2ccccc2)c1=O | – | inconclusive: 89.1 µM [inhibitor, single point]

More compounds.

Structure (SMILES) | activity, negative = inhibition | Potency
CCc1ccc(CNCCNC(=O)c2ccco2)cc1 | – | inconclusive: 25.1 µM [inhibitor, single point]
Cc1ccc(/C=c2\sc3nc(-c4ccco4)nn3c2=O)o1 | – | inconclusive: 3.98 µM [inhibitor, full curve, poor fit]
O=C(O)CCCN1C(=O)/C(=C/c2ccncc2)SC1=S | – | inconclusive: 28.2 µM [inhibitor, single point]
CCc1nc2ccccc2[nH]1 | – | inconclusive: 100 µM [inhibitor, single point]
Cc1ccc2nc(/C(C#N)=C/c3ccc(-c4ccccc4C(=O)O)o3)[nH]c2c1 | – | inconclusive: 20 µM [inhibitor, full curve, poor fit]
Cc1cc(C)c(NC(=O)CS(=O)CC(=O)NCCN2CCCCCC2)c(C)c1 (stereo unspecified) | inactive: -15.7% | –
Cc1ccc(C)n1C(CC(=O)O)c1ccc(C#N)cc1 (stereo unspecified) | – | active: 50.1 µM
CC1CCc2sc(C(=O)N/N=C/c3ccc(O)cc3)cc2C1 (stereo unspecified) | inactive: -15.3% | –
O=C(Nc1cccc(O)c1)c1ccc2c(c1)C(=O)N(Cc1ccco1)C2=O | – | inconclusive: 44.7 µM [inhibitor, partial curve]
Clc1ccccc1-c1nn2c(-c3cc(-c4ccccc4)n[nH]3)nnc2s1 | – | inconclusive: 39.8 µM [inhibitor, partial curve, poor fit]
COc1cc(OC)c(OC)cc1CN1CCN(Cc2ccc(SC)cc2)CC1 | – | inconclusive: 35.5 µM [inhibitor, single point]
Cc1cc(C(=O)COC(=O)CCc2nc3ccccc3c(=O)[nH]2)c(C)n1CC1CCCO1 (stereo unspecified) | – | inconclusive: 79.4 µM [inhibitor, partial curve]
Cc1nn(-c2ccccc2)c(C)c1NC(=O)COC(=O)c1cc(Br)ccc1O | – | inconclusive: 89.1 µM [inhibitor, partial curve]
COc1ccc(OC)c2c(/C=C/c3ccc(N(C)C)cc3)ccnc12 | – | inconclusive: 79.4 µM [inhibitor, partial curve]
CCCc1[nH]n(-c2nc3ccccc3s2)c(=O)c1C=NCCN1CCOCC1 | – | inconclusive: 89.1 µM [inhibitor, single point]
O=C(O)Cc1ccc(NC(=O)COc2ccc3ccccc3c2)cc1 | inactive: 11.4% | –
Cc1cccc(C(=O)NC(=S)Nc2ccccc2C(=O)O)c1 | inactive: -14.9% | –
O=C(CNS(=O)(=O)c1ccccc1)NCc1ccco1 | – | inconclusive: 22.4 µM [inhibitor, full curve, poor fit]
COc1cccc(/C=C2/SC(=S)N(CCCC(=O)Nc3ccc(O)cc3)C2=O)c1 | inactive: 6.83% | –
COc1ccccc1NC(=O)CC(NCCN(C)C)C(=O)O (stereo unspecified) | – | inconclusive: 20 µM [inhibitor, partial curve]
N#CC1=C(N)Oc2n[nH]c(-c3ccccc3)c2C1c1cccnc1 (stereo unspecified) | – | inconclusive: 22.4 µM [inhibitor, single point]
CCCc1nc2c(sc3nc4c(cc32)COC(C)(C)C4)c(=O)n1Cc1ccco1 | – | inconclusive: 25.1 µM [inhibitor, full curve, poor fit]
CC(=O)N1CCc2cc(C(=O)CN3CCCCC3)ccc21 | – | inconclusive: 15.8 µM [inhibitor, single point]
